“Also recorded” adds a separate entry of the source.
Assay: SEM of tubing after neat chemical treatment
Details: neat chemical for 24 hours

CCCCCC [hexane]
physical damage of tubing by SEM: no physical abnormalities; also recorded: little to no physical damage
